Results on 3 substances are retold here after PMC5704011.

Amino acid sequences for entries named in this document (tags omitted). Residues count along the entry.
UniProt P17948, residues 27-758: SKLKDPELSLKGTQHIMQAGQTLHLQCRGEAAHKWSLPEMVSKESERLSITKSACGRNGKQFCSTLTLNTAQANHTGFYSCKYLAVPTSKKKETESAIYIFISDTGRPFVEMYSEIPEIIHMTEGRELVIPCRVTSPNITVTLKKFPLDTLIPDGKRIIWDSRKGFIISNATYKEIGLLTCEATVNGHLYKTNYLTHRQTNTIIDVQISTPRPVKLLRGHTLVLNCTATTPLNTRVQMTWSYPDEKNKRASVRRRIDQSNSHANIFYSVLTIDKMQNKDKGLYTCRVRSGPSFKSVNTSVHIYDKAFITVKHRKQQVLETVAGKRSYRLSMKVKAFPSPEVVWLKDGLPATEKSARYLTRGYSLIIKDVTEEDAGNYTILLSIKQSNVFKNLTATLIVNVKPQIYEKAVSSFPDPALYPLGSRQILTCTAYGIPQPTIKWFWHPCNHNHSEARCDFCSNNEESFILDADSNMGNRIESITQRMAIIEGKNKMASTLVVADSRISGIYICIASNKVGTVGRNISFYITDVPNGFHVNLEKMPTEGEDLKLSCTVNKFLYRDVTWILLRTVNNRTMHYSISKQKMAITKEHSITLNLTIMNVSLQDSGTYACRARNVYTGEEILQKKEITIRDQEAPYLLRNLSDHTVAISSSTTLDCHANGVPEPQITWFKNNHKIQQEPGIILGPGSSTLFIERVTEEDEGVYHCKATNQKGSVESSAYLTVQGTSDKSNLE
UniProt P35916, residues 25-775: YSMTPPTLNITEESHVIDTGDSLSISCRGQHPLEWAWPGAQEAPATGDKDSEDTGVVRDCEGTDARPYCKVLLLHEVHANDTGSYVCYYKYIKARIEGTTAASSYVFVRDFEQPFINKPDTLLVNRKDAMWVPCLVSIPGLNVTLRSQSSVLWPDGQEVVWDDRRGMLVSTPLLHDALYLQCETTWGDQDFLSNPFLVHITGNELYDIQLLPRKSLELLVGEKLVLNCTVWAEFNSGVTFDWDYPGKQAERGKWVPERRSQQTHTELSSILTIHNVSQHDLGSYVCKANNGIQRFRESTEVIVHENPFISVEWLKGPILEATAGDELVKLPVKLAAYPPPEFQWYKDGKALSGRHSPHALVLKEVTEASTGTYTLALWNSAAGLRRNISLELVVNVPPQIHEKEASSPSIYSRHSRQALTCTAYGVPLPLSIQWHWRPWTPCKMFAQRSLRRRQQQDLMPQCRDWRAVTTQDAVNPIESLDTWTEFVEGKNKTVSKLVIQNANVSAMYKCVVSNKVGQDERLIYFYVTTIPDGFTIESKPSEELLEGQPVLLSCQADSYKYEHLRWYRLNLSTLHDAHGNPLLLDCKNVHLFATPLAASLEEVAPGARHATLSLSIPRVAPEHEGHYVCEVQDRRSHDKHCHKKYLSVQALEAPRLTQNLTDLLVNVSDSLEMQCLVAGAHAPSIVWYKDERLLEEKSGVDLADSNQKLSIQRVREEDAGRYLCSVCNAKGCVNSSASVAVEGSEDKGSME
UniProt P01127, residues 82-190: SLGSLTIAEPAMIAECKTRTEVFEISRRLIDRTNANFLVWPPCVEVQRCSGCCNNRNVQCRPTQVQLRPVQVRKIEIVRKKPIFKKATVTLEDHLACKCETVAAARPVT

No constants are given. Whether binding was seen depends on the method and setting.

For test [1], the target named is VEGFR1 (Homo sapiens) (UniProt P17948). The experiment in a line: SPR; BIAcore 3000, 25 °C, CM5 chip; receptor immobilised by amine coupling (~200-500 R.U.); ligand injected at 40, 20 and 10 nM in HBS-EP pH 7.4 (10 mM HEPES, 3 mM EDTA, 150 mM NaCl, 0.005% TWEEN-20); angiopoietin-4 reference cell subtracted; global 1:1 Langmuir fit; χ^2-to-Rmax < 1.0 taken as a true interaction; both purified. (In SPR one partner is held on a chip, and binding of the other changes the refractive index at the surface.)

In test [2] the target is human recombinant VEGFR3 (human) (UniProt P35916). Described as above.
Test [3] addresses VEGFR1 (Homo sapiens) (UniProt P17948). The experiment in a line: SPR; BIAcore 3000, 25 °C, CM5 chip; receptor immobilised by amine coupling (~200-500 R.U.); ligand injected at 10, 20 and 40 nM, 30 uL/min, 10 min dissociation; HBS-EP pH 7.4 (10 mM HEPES, 3 mM EDTA, 150 mM NaCl, 0.005% TWEEN-20); angiopoietin-4 reference cell subtracted; global 1:1 Langmuir fit; χ2-to-Rmax > 1.0 or negative association curves taken as no true interaction; both purified.

The target in test [4] is human recombinant VEGFR3 (human) (UniProt P35916). The test is described as above.

Take “human recombinant PDGF-AA (from UniProt P04085 87-211) (ligand)”: the binding entry with VEGFR1 (Homo sapiens) [1] was “no binding (tested: 40 nM)”; in test [2] it was “no binding (tested: 40 nM)”; with VEGFR1 (Homo sapiens) [3], “no binding (tested: 10, 20 and 40 nM tested)”; in test [4] it was “no binding (tested: 10, 20 and 40 nM tested)”.
On to “human recombinant PDGF-AB (from UniProt P04085 87-211; P01127 82-190) (ligand)”, for which the binding result in the test with VEGFR1 (Homo sapiens) [1] was “no binding (tested: 40 nM)”; in test [2] it was “no binding (tested: 40 nM)”; with VEGFR1 (Homo sapiens) [3], “no binding (tested: 10, 20 and 40 nM tested)”; in test [4] it was “no binding (tested: 10, 20 and 40 nM tested)”.
Take “human recombinant PDGF-BB (from UniProt P01127 82-190) (ligand)”: the binding entry with VEGFR1 (Homo sapiens) [1] is “no binding (tested: 40 nM)”; in test [2] it was “no binding (tested: 40 nM)”; with VEGFR1 (Homo sapiens) [3], “no binding (tested: 10, 20 and 40 nM tested)”; in test [4], “no binding (tested: 10, 20 and 40 nM tested)”.
